PubChem BioAssay AID1671195 – Yale University, 2021

Assay: 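Regulators of LDL receptor activity judged by labelled LDL uptake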 (primary screen)
Cells: human Huh7 hepatoma cells
Reagents: siRNA pool against human genes, 18 nM
Duration: about 2 to 2.5 days of knockdown, then 8 h LDL uptake
Treatment: DiI-labelled LDL at 30 µg/ml for 8 h, in lipoprotein-deficient serum medium
Read-out: 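Fluorescent LDL signal imaged in cells, scaled to the plate median, robust z-score for each replicate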
Reading the numbers: robust z-score: higher = more LDL uptake after knockdown
Rule for the call: 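a gene counts as active if at least two replicate z-scores exceed ±2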
Shown is an unselected part of about 22,000 reagents. About 1,510 of all reagents (6.9%) count as active. 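Active includes knockdowns raising or lowering LDL uptake; positive z-scores mean more uptake, negative mean less.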 No sequences are given here.

no.	gene symbol	PubChem SID	robust z-score, replicate 1	robust z-score, replicate 2	robust z-score, replicate 3	Outcome
1	LOC339875 (retired record)	SID442904464	-1.69	-1.66	-1.61	inactive
2	SGCB (sarcoglycan beta)	SID442889963	0.924	0.347	0.172	inactive
3	GP6 (glycoprotein VI platelet)	SID442893892	-0.275	0.277	-0.00598	inactive
4	LOC441053 (retired record)	SID442897862	-0.314	-0.308	-0.678	inactive
5	DENND2C (DENN domain containing 2C)	SID442886106	1.14	1.02	1.63	inactive
6	DOLK (dolichol kinase)	SID442887689	1.41	-0.0398	1.21	inactive
7	MAP2K4 (mitogen-activated protein kinase kinase 4)	SID442901093	-0.711	-1.11	-0.729	inactive
8	ZNF665 (zinc finger protein 665)	SID442887918	0.875	0.841	0.734	inactive
9	DUOX1 (dual oxidase 1)	SID442884114	1.93	2.25	1.64	active
10	ZCCHC9 (zinc finger CCHC-type containing 9)	SID442888688	0.733	0.512	0.789	inactive
11	ADD2 (adducin 2)	SID442901804	-0.629	-1.15	-1.12	inactive
12	DDI2 (DDI proteasomal shuttling factor 2)	SID442889826	0.491	0.469	0.551	inactive
13	DDI2 (DDI proteasomal shuttling factor 2)	SID442898423	-0.72	-0.564	-0.205	inactive
14	STK10 (serine/threonine kinase 10)	SID442884869	1.79	2.03	1.66	inactive
15	KRT39 (keratin 39)	SID442894274	0.333	-0.314	-0.154	inactive
16	DDR1 (discoidin domain receptor tyrosine kinase 1)	SID442902753	-1.29	-1.11	-1.02	inactive
17	COMMD9 (COMM domain containing 9)	SID442891296	0.46	0.43	0.021	inactive
18	COMMD9 (COMM domain containing 9)	SID442891427	0.961	-0.69	0.593	inactive
19	PIP4K2A (phosphatidylinositol-5-phosphate 4-kinase type 2 alpha)	SID442883351	3.44	2.79	3.29	active
20	RASEF (RAS and EF-hand domain containing)	SID442902760	-1.15	-1.24	-1.04	inactive
21	KCNE2	SID442901313	-0.97	-0.824	-0.851	inactive
22	FRAS1 (Fraser extracellular matrix complex subunit 1)	SID442899218	-0.725	-0.492	-0.56	inactive
23	LOC440029 (retired record)	SID442885650	1.62	1.88	0.767	inactive
24	CYP4F12 (cytochrome P450 family 4 subfamily F member 12)	SID442900897	-1.03	-0.76	-0.677	inactive
25	RAET1G (retinoic acid early transcript 1G)	SID442889187	0.655	0.667	0.474	inactive
26	FDPS (farnesyl diphosphate synthase)	SID442902257	-1.42	-0.819	-0.878	inactive
27	NR1I3 (nuclear receptor subfamily 1 group I member 3)	SID442891250	0.49	-0.201	0.645	inactive
28	RPF2 (ribosome production factor 2 homolog)	SID442883406	2.96	2.66	3.39	active
29	LOC389834 (ankyrin repeat domain 57 pseudogene)	SID442887298	1.16	1.12	0.55	inactive
30	CNOT12 (CCR4-NOT transcription complex subunit 12)	SID442900143	-0.609	-0.816	-0.732	inactive
31	ERBB3 (erb-b2 receptor tyrosine kinase 3)	SID442902016	-0.449	-1.51	-1.03	inactive
32	PPP1R7 (protein phosphatase 1 regulatory subunit 7)	SID442893198	0.221	0.303	-0.29	inactive
33	GYS2 (glycogen synthase 2)	SID442889665	0.76	-0.147	0.966	inactive
34	LRRC25 (leucine rich repeat containing 25)	SID442902376	-1.06	-0.917	-1.21	inactive
35	CCDC60 (coiled-coil domain containing 60)	SID442900132	-0.801	-0.435	-0.917	inactive
36	PPIAL4A (peptidylprolyl isomerase A like 4A)	SID442891152	0.385	0.541	0.0463	inactive
37	SEMA6D (semaphorin 6D)	SID442891921	-0.18	1.57	-0.698	inactive
38	MIPOL1 (mirror-image polydactyly 1)	SID442895799	-0.25	-0.524	0.154	inactive
39	CD36 (CD36 molecule (CD36 blood group))	SID442884333	-1.84	-1.95	-2.09	active
40	DUSP1 (dual specificity phosphatase 1)	SID442892321	0.122	0.259	0.164	inactive
41	ARF4 (ARF GTPase 4)	SID442894539	-1.23	1.07	-0.0614	inactive
42	PRSS41 (serine protease 41)	SID442885086	1.47	1.62	1.97	inactive
43	EMC9 (ER membrane protein complex subunit 9)	SID442889130	1.02	1.36	-0.563	inactive
44	BAHD1 (bromo adjacent homology domain containing 1)	SID442888502	0.605	1.1	0.421	inactive
45	ZNF252P-AS1 (ZNF252P antisense RNA 1)	SID442894065	0.0795	-0.122	-0.024	inactive
46	FAM30A (family with sequence similarity 30 member A)	SID442888345	0.407	1.38	0.418	inactive
47	RPL29P13 (ribosomal protein L29 pseudogene 13)	SID442891471	1.17	-0.129	-0.196	inactive
48	LOC440291 (retired record)	SID442894689	-0.195	-0.33	0.254	inactive
49	LOC390828 (retired record)	SID442885743	1.01	1.22	1.93	inactive
50	H1-2 (H1.2 linker histone, cluster member)	SID442886779	0.602	1.1	1.49	inactive
51	ZFYVE28 (zinc finger FYVE-type containing 28)	SID442894300	-0.118	-0.307	0.28	inactive
52	FAM185A (family with sequence similarity 185 member A)	SID442900236	-0.97	-0.739	-0.491	inactive
53	TGM2 (transglutaminase 2)	SID442899993	-0.876	-0.63	-0.583	inactive
54	PIGP (phosphatidylinositol glycan anchor biosynthesis class P)	SID442896805	-1.28	0.0278	0.307	inactive
55	QSOX2 (quiescin sulfhydryl oxidase 2)	SID442895652	0.243	-0.921	0.105	inactive
56	KLHL36 (kelch like family member 36)	SID442898831	-0.616	-0.473	-0.539	inactive
57	ZWILCH (zwilch kinetochore protein)	SID442902980	-1.39	-1.85	-0.329	inactive
58	MAOA (monoamine oxidase A)	SID442889750	0.548	0.545	0.45	inactive
59	SSBP2 (single stranded DNA binding protein 2)	SID442888462	0.708	0.619	0.818	inactive
60	PRKCQ (protein kinase C theta)	SID442901675	-0.678	-0.986	-1.15	inactive
61	NLRP1 (NLR family pyrin domain containing 1)	SID442901010	-0.716	-1.26	-0.543	inactive
62	GTF2A1 (general transcription factor IIA subunit 1)	SID442889200	0.513	0.792	0.484	inactive
63	RTBDN (retbindin)	SID442886662	1.16	1.49	0.641	inactive
64	PRG3 (proteoglycan 3, pro eosinophil major basic protein 2)	SID442889778	-0.896	1.11	1.32	inactive
65	FABP1 (fatty acid binding protein 1)	SID442899376	1.34	-0.37	-2.81	inactive
66	CKAP2L (cytoskeleton associated protein 2L)	SID442897908	-0.363	-1.03	0.0805	inactive
67	H1-5 (H1.5 linker histone, cluster member)	SID442885288	1.91	1.14	1.69	inactive
68	H3C8 (H3 clustered histone 8)	SID442887267	0.743	1.07	1.04	inactive

Ordered by “robust z-score, replicate 3” (lowest first): 10 of the entries above
gene symbol	PubChem SID	robust z-score, replicate 1	robust z-score, replicate 2	robust z-score, replicate 3	Outcome
RASEF (RAS and EF-hand domain containing)	SID442902760	-1.15	-1.24	-1.04	inactive
FDPS (farnesyl diphosphate synthase)	SID442902257	-1.42	-0.819	-0.878	inactive
KCNE2	SID442901313	-0.97	-0.824	-0.851	inactive
CYP4F12 (cytochrome P450 family 4 subfamily F member 12)	SID442900897	-1.03	-0.76	-0.677	inactive
FRAS1 (Fraser extracellular matrix complex subunit 1)	SID442899218	-0.725	-0.492	-0.56	inactive
RAET1G (retinoic acid early transcript 1G)	SID442889187	0.655	0.667	0.474	inactive
LOC389834 (ankyrin repeat domain 57 pseudogene)	SID442887298	1.16	1.12	0.55	inactive
NR1I3 (nuclear receptor subfamily 1 group I member 3)	SID442891250	0.49	-0.201	0.645	inactive
LOC440029 (retired record)	SID442885650	1.62	1.88	0.767	inactive
RPF2 (ribosome production factor 2 homolog)	SID442883406	2.96	2.66	3.39	active
